From paper PMC10279920, “Single-molecule visualization of Pif1 helicase translocation on single-stranded DNA” (The Journal of Biological Chemistry, 2023)
Changes are numbered by the printed parent chain. A weaker result is weaker than the reference pair of the same experiment. Tags and fusion partners may be left off the protein sequences shown. For part of these data: Construct, isoform or probe ends are uncertain for at least one entry. For part of these data: At least one verdict was read from the data and is not stated in words by the source.

Legend:
Assay in all cases: EMSA
Conditions in all cases: no ATP, 5 mM Mg2+, 35 mM Tris-HCl pH 7.5, 1 mM DTT, 5 mM MgCl2, 60 mM KCl, 0.1 mg/ml BSA, 30 min at 30 C, 5 nM ssDNA, recombinant protein, residues 40-859, protein details: N-terminal superfolder GFP, Ni-NTA purified, label: 5' Alexa647, single-stranded DNA
[1] = target: T1, GFP-Pif1 H705A (Saccharomyces cerevisiae) (UniProt P07271)
T1 sequence (looked up): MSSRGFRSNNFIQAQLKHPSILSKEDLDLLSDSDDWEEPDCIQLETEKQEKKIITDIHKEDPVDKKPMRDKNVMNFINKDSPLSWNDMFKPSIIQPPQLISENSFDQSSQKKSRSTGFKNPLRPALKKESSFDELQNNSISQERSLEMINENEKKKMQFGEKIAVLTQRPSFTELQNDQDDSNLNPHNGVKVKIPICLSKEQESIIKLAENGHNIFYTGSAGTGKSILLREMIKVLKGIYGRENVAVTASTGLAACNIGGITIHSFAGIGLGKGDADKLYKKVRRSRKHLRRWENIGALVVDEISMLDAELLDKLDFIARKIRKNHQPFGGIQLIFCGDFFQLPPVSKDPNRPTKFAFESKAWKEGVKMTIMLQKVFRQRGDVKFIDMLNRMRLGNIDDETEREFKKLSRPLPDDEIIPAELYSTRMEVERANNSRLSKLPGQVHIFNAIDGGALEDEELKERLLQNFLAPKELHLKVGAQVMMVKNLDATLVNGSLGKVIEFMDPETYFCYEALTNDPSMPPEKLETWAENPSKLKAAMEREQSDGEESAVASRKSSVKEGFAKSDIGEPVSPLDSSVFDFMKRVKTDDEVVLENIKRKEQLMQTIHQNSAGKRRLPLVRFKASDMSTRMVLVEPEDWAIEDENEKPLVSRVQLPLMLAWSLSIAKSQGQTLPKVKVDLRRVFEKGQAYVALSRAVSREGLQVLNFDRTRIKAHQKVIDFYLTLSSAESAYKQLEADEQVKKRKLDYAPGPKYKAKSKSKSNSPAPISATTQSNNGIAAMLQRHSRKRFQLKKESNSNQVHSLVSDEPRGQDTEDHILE

[2] = target: T2, GFP-Pif1 S304A (Saccharomyces cerevisiae) (UniProt P07271)
T2 sequence (looked up): T1 sequence (looked up) with S265A, A666H

[3] = target: T3, GFP-Pif1 S703A (Saccharomyces cerevisiae) (UniProt P07271)
T3 sequence (looked up): T1 sequence (looked up) with S664A, A666H

Measured: binding result

GCTAGCAGTAGCCAGCATCGAACGTACGATCGGTAACGTA [40-nt ssDNA]
binds more weakly: all assays above
